Experimental data as given in patent publication US20170224833A1, “SELF-ASSEMBLING MOLECULES THAT ACCUMULATE IN ACIDIC TUMOR MICROENVIRONMENTS” (OHIO STATE INNOVATION FOUNDATION, priority 2014, published 2017).
For part of these data: Part of at least one peptide drawing is inferred or uncertain, most often the ends. Some results were stated once for a whole list of compounds, not compound by compound. Residues, ends and D or L forms follow the SMILES beside them. *: point of attachment. Palmitoyl = CCCCCCCCCCCCCCCC(=O)*

Columns and labels:
[1] = Circular dichroism (CD) spectroscopy of pH-triggered self-assembly transition in 150 mM NaCl, 2.2 mM CaCl2; assay type: physicochemical; details: 10 μM PA, random coil to β-sheet
Protocol: The target PA concentration (10 μM) was below the detectable limit of conventional techniques to determine the morphology such as cryoTEM and small-angle X-ray scattering. Consequently, circular dichroism (CD) spectroscopy was initially used to characterize the morphology of these PAs at various pH values. PA1 was the first molecule synthesized that underwent a self-assembly transition in the desired pH range of 6.6-7.4 at 10 μM PA concentration, in 150 mM NaCl and 2.2 mM CaCl2 (FIG. 2A) (Goldberger, J. E., et al. Angew. Chem. Int. Ed. 2011 50:6292-95). […] The transition pH from random coil to β-sheet occurred at a pH of 6.6. The transition pH was defined as the value at which the ellipticity at 205 nm rises to zero, followed by the appearance of a minimum at 218-220 nm.
Measurements were done on a Jasco-815 Circular Dichroism spectrometer using 1 cm path length quartz cuvettes. 10 μM solutions of peptide amphiphiles were prepared in 150 mM NaCl and 2.2 mM CaCl2 by dilution from a concentrated PA stock (0.5-1 mM, pH 9). Double de-ionized Milli-Q water was used for preparing all solutions. The solutions were then heated at 80° C. for 30 minutes in a water bath and gradually cooled to room temperature. […]

[2] = Transmission electron microscopy (TEM) of self-assembled morphology; assay type: physicochemical; details: pH 8.0 (100 μM, FIG. 40)
Protocol: TEM images were obtained using solutions of either 10 μM or 0.5 mM peptide amphiphile concentration, as well as 150 mM NaCl and 2.2 mM CaCl2 in Milli-Q water. The solutions were first heated at 80° C. for 30 minutes in a water bath and then gradually cooled to room temperature. This was followed by pH adjustment using either HCl or NaOH. 5 μL of this solution was pipetted onto a Carbon Formvar grid (Electron Microscopy Sciences) and allowed to sit for 2 minutes before being wicked dry using filter paper. For the 10 μM experiments that were performed to determine the time dependence of nanofiber formation, solutions were dropcast onto the grid within three minutes of pH adjustment. The samples were then negatively stained using 1 wt % uranyl acetate and imaged under a FEI Tecnai G2 Bio TWIN TEM system, operating at 100 kV. All TEM experiments were performed in triplicate, using at least three different freshly prepared solutions and grids. […]
TEM images were obtained at various concentrations and pH values, with 150 mM NaCl and 2.2 mM CaCl2 in deionized water. Solutions were heated at 80° C. for 30 minutes and gradually cooled to room temperature. […]
Transmission electron microscopy was employed to confirm the self-assembled morphology at different pH values and concentrations. […] The diameters of each self-assembled morphology was determined via averaging at least 30 different objects.

Row | Molecule | CD Transition pH [1] | fiber length [2] [μm]
1 | CCCCCCCCCCCCCCCC(=O)N[C@H](C(=O)N[C@@H](C)C(=O)N[C@@H](C)C(=O)N[C@@H](C)C(=O)N[C@@H](CCC(=O)O)C(=O)N[C@@H](CCC(=O)O)C(=O)N[C@@H](CCC(=O)O)C(=O)N[C@@H](CCC(=O)O)C(N)=O)C(C)C [PA3] (Palmitoyl-VAAAEEEE-NH2) | 6.2 | –
2 | Palmitoyl-AAAIEEEE-NH2 [PA70] | – | > 1
3 | Palmitoyl-AIAAEEEEK(DO3A:Gd)-NH2 (N-palmitoyl, Lys-DO3A:Gd, C-terminal amide) [PA71] | – | > 1
